# Laboratory results published in PubChem BioAssay AID720504 (National Center for Advancing Translational Sciences (NCATS), 2013).
# Chains of the proteins cited; added tags and fusions are not shown.
# UniProt P53350, whole entry, looked up: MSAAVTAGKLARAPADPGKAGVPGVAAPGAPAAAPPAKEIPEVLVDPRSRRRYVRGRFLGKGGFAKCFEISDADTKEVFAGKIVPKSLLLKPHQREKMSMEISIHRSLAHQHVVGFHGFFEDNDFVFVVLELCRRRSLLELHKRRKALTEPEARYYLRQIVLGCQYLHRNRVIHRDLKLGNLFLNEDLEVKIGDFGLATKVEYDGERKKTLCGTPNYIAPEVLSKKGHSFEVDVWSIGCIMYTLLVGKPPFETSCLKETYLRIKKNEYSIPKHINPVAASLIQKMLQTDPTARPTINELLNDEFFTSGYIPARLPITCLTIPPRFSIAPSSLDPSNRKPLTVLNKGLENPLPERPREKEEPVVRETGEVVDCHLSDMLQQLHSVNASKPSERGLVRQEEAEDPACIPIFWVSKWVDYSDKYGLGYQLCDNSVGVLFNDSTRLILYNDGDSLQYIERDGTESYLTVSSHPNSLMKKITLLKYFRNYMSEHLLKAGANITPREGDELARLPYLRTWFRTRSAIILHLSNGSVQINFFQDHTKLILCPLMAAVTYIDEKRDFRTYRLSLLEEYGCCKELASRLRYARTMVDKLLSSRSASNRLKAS
# Screen size: about 360,000 compounds; about 10,000 (2.8%) were called active. Inconclusive results, whose numbers are uncertain, are shown with a selection of clear calls. Calls follow the shape of the dose curve; as a rule, active = well fitted inhibition curve with a large enough effect; inconclusive = small, poorly fitted or top-dose-only effect; inactive = flat fitted curve, though single readings scatter. Potencies of inconclusive entries are doubtful fits and often do not repeat.
# Target: Serine/threonine-protein kinase PLK1 (Homo sapiens) (UniProt P53350)
# Assay: qHTS for Inhibitors of PLK1-PDB (polo-like kinase 1 - polo-box domain): Primary Screen; also: nearly all actives have a fitted effect of over 65% in size; as to max response, negative = inhibition: series mostly up to about 57 µM
# Details: Plk1 PBD binding of FITC phosphopeptide, fluorescence polarization
# % is scaled to controls: 0 for no effect and ±100 for the full control effect; potency is read from the fitted curve at half-maximal effect.
SMILES,"max response, negative = inhibition",Potency
O=C1CC(c2ccsc2)c2ccc3ccccc3c2N1 (stereo unspecified),inactive: -3.69%,–
Cc1nc(N)sc1-c1csc(Nc2ncccn2)n1,–,"inconclusive: 23.8 µM [inhibitor, single point]"
C=CCOC(=O)C1=C(C)NC(=S)NC1c1cccs1 (stereo unspecified),–,"inconclusive: 4.74 µM [inhibitor, full curve]"
CCOc1ccccc1C1CC(=O)NC2=C1C(=O)CC(C)(C)C2 (stereo unspecified),–,active: 26.7 µM
O=C1CCN(S(=O)(=O)c2ccccc2)N1,inactive: -25.1%,–
Nc1nc(SCC(=O)N2CCc3ccccc3C2)[nH]c(=O)c1-c1ccccc1,–,"inconclusive: 11.9 µM [inhibitor, partial curve]"
O=[N+]([O-])c1ccc(/C=C/c2ccc3cccc([N+](=O)[O-])c3n2)cc1,inactive: 0.382%,–
O=C(/C=C/c1ccco1)N1CCN(S(=O)(=O)c2ccc(F)c(F)c2F)CC1,inactive: -6.72%,–
Clc1ccccc1-c1nn2c(Cn3cnc4ccccc43)nnc2s1,–,active: 23.8 µM
O=C1CSc2cc(Cl)ccc2N1,–,active: 10.6 µM
Cc1cc(Sc2nnc(N)s2)c2ccccc2n1,–,"inconclusive: 21.2 µM [inhibitor, single point]"
O=C(NC(=S)Nn1cnc2c(cnn2-c2ccccc2)c1=O)c1ccc(Cl)cc1,–,"inconclusive: 33.6 µM [inhibitor, single point]"
COc1ccc(CN(C)C[C@@H]2OCc3cnnn3CCCC(=O)N([C@H](C)CO)C[C@H]2C)cc1,–,"inconclusive: 23.8 µM [inhibitor, partial curve]"
CNc1nc(C)c([N+](=O)[O-])c(Nc2ccc(OC)cc2)n1,–,active: 11.9 µM
COc1ccc2[nH]c3c(=O)n(CCCCC(=O)NCCC(C)C)c(=S)[nH]c3c2c1,–,active: 11.9 µM
CC1(C)Cc2cccc(OCC(=O)NCCOc3ccccc3)c2O1,–,active: 21.2 µM
O=C(c1ccc(F)cc1)C1CCN(C(=O)Nc2ccc(F)cc2)CC1,–,"inconclusive: 16.8 µM [inhibitor, partial curve]"
C/C=C/c1ccc(OCC(=O)Nc2ccc(C(N)=O)cc2)c(OC)c1,inactive: -7.13%,–

# In the list so far, two have fluorine.
SMILES,"max response, negative = inhibition",Potency
O=C(/C=C/c1ccco1)N1CCN(S(=O)(=O)c2ccc(F)c(F)c2F)CC1,inactive: -6.72%,–
O=C(c1ccc(F)cc1)C1CCN(C(=O)Nc2ccc(F)cc2)CC1,–,"inconclusive: 16.8 µM [inhibitor, partial curve]"

# (further entries)

SMILES,"max response, negative = inhibition",Potency
Oc1ccc(/C=N/Nc2ccnc3cc(Cl)ccc23)cc1O,inactive: -12.1%,–
O=C1CCCN1CCC1CCCCN1Cc1nc(COc2ccccc2)no1 (stereo unspecified),–,"inconclusive: 37.7 µM [inhibitor, single point]"
COc1cccc(CN(C(=O)Cn2nnc(-c3ccccc3F)n2)C(C(=O)NC(C)(C)C)c2ccncc2)c1 (stereo unspecified),–,"inconclusive: 18.9 µM [inhibitor, partial curve]"
Cc1c(Cl)cccc1NC(=O)C1CCN(S(C)(=O)=O)CC1,–,"inconclusive: 26.7 µM [inhibitor, single point]"
COc1ccccc1-c1cc(C(F)(F)F)nc(S(=O)(=O)CCCC(=O)N2CCOCC2)n1,–,"inconclusive: 26.7 µM [inhibitor, single point]"
Cn1c(/C=C/c2ccc(Cl)cc2)nc2ccccc2c1=O,–,"inconclusive: 37.7 µM [inhibitor, single point]"
CCCCCCCc1c(C#N)c(N)[nH]c(=S)c1C#N,–,active: 23.8 µM
O=C(O)c1ccc(/C=C2/SC(=S)N(Cc3ccccc3)C2=O)cc1,–,"inconclusive: 26.7 µM [inhibitor, single point]"
CCC(C)(C)C1CCc2c(sc(NC(=O)c3ccoc3C)c2C(N)=O)C1 (stereo unspecified),–,"inconclusive: 26.7 µM [inhibitor, partial curve]"
O=C(NNC(=S)NC(=O)c1ccccc1)c1ccc(O)cc1,–,"inconclusive: 23.8 µM [inhibitor, partial curve]"
COC(=O)C(C#N)c1nc2ccccc2nc1N1CCCC1 (stereo unspecified),inactive: -8.75%,–
O=[N+]([O-])c1cc(/C=N/O)ccc1Oc1cccc(Cl)c1,inactive: -8.74%,–
COc1ccc(CNC(=O)C2=CCN(S(=O)(=O)c3ccc(C)cc3)CC2)cc1,–,"inconclusive: 29.9 µM [inhibitor, single point]"
S=C(c1ccccc1)N1CCN(c2ccccc2)CC1,–,active: 26.7 µM
Cc1ccc(/C=C2\SC(=S)N(NS(=O)(=O)c3ccc(C)cc3)C2=O)cc1,–,active: 26.7 µM
Cc1ccc(C2(C)NC(=O)N(CC(=O)Nc3nc(-c4ccccn4)cs3)C2=O)cc1 (stereo unspecified),–,active: 4.23 µM
Fc1ccc(C2CC(c3ccccc3)n3ncnc3N2)cc1 (stereo unspecified),inactive: -8.25%,–
CCc1c(C)sc(NC(=O)c2noc(C)c2[N+](=O)[O-])c1C#N,–,active: 33.6 µM
